According to PubChem BioAssay AID248 (DTP/NCI, 2004):
The list does not hold the whole screen: it is rich in T/C values a quarter to a half above the control, in often repeated tests (any T/C) and in doses without a T/C. Other doses and runs of a compound stand elsewhere. T/C is the treated group as % of the vehicle group. Some entries give survivors of the animals treated and no T/C: the source files T/C as zero there, which appears to mark a toxic dose or a test without result, not a measured value. Some doses without a T/C left all or most animals alive at the check, yet need not have been tolerated: the source hardly ever lists a survival T/C far under the control, and the zero likely stands for such cases as well. Survivors were counted at the toxicity check, usually on the fifth day, unless a day is given; later deaths do not show. Schedule codes are those of the source, read here as Q, the interval in days (D) or hours (H), X, the number of doses. Where survival is the endpoint, the PubChem record calls one and a half times the control and up active, and a quarter to a half above the control has no call in these data; cut-offs in other NCI protocols can differ. Some T/C values are followed by the survivors on the day toxicity was checked, most often the fifth; where none is given, no animal had died by that day.

Tested on: L1210 leukemia ip in BDF1 mice, survival T/C
Assay: NCI In Vivo Anticancer Drug Screen. Data for tumor model L1210 Leukemia (intraperitoneal) in B6D2F1 (BDF1) mice
Details: T/C endpoint: mean survival time, higher T/C = longer survival
[1] = dose: 400.0 mg/kg/injection, schedule: Q04DX003 (ip), vehicle: saline with Tween-80
[2] = dose: 100.0 mg/kg/injection, schedule: Q01DX009 (ip), vehicle: saline
[3] = dose: 100.0 mg/kg/injection, schedule: Q04DX003 (ip), vehicle: Klucel (hydroxypropylcellulose) (HPC)
[4] = dose: 400.0 mg/kg/injection, schedule: Q04DX003 (ip), vehicle: Klucel (hydroxypropylcellulose) (HPC)
[5] = dose: 400.0 mg/kg/injection, schedule: Q01DX009 (ip), vehicle: Klucel (hydroxypropylcellulose) (HPC)
[6] = dose: 400.0 mg/kg/injection, schedule: Q01DX001 (ip), vehicle: saline
[7] = dose: 50.0 mg/kg/injection, schedule: Q01DX009 (ip), vehicle: Klucel (hydroxypropylcellulose) (HPC)
[8] = dose: 100.0 mg/kg/injection, schedule: Q01DX009 (ip), vehicle: Klucel (hydroxypropylcellulose) (HPC)
[9] = dose: 200.0 mg/kg/injection, schedule: Q01DX009 (ip), vehicle: Klucel (hydroxypropylcellulose) (HPC)

`Nc1nc(=O)c2[nH]cnc2n1O` was tested, and the survivor count (dose: 85.0 mg/kg/injection, schedule: Q01DX009 (ip), vehicle: saline) was 2 of 6, the survivor count (dose: 125.0 mg/kg/injection, schedule: Q01DX009 (ip), vehicle: saline) was 0 of 6 and the survivor count (dose: 185.0 mg/kg/injection, schedule: Q01DX009 (ip), vehicle: saline) was 0 of 6.

`S=C(Nc1cccc(Cl)c1)Nc1cccc(Cl)c1` was tested, and the survivor count [1] was 0 of 3.

For `CSc1ncnc2c1ncn2NCC1OC(C)OCC1O` (stereo not given), the survivor count (dose: 400.0 mg/kg/injection, schedule: Q01DX001 (ip), vehicle: Klucel (hydroxypropylcellulose) (HPC)) was 0 of 6.

With `FCCCC1CCCCN1` (stereo not given) the survivor count [2] was 0 of 3 and the survivor count (dose: 200.0 mg/kg/injection, schedule: Q01DX009 (ip), vehicle: saline) was 0 of 3.

With `c1ccc(COCCNCCOCc2ccccc2)cc1` the survivor count [3] was 1 of 6, the survivor count (dose: 200.0 mg/kg/injection, schedule: Q04DX003 (ip), vehicle: Klucel (hydroxypropylcellulose) (HPC)) was 0 of 6 and the survivor count [4] was 0 of 6.

With `O=[N+]([O-])c1ccc2cnn(CN3CCCCC3)c2c1` the survivor count (dose: 200.0 mg/kg/injection, schedule: Q01DX001 (ip), vehicle: carboxymethylcellulose (CMC)) was 2 of 4.

`CC1CC(C)(C)NC(=O)O1` (stereo not given) was tested, and the survivor count (dose: 150.0 mg/kg/injection, schedule: Q01DX009 (ip), vehicle: other) was 0 of 6, the survivor count (dose: 200.0 mg/kg/injection, schedule: Q01DX001 (ip), vehicle: other) was 1 of 6 and the survivor count (dose: 225.0 mg/kg/injection, schedule: Q01DX009 (ip), vehicle: other) was 0 of 6. The survivor count (dose: 335.0 mg/kg/injection, schedule: Q01DX009 (ip), vehicle: other) was 0 of 6 and the survivor count (dose: 400.0 mg/kg/injection, schedule: Q01DX001 (ip), vehicle: other) was 0 of 6.

In the case of `COC(=O)c1cc(=O)c2cc(C(C)=O)ccc2[nH]1`, the survivor count (dose: 100.0 mg/kg/injection, schedule: Q01DX001 (ip), vehicle: other) is reported as 6 of 6.

In the case of `N=C(N)SCc1ccc(CSC(=N)N)cc1`, the survivor count (dose: 50.0 mg/kg/injection, schedule: Q04DX002 (ip), vehicle: saline with Tween-80) is reported as 0 of 3, the survivor count [2] is reported as 0 of 6 and the survivor count (dose: 100.0 mg/kg/injection, schedule: Q04DX002 (ip), vehicle: saline with Tween-80) is reported as 0 of 3. For the same compound, the survivor count (dose: 200.0 mg/kg/injection, schedule: Q04DX002 (ip), vehicle: saline with Tween-80) was 0 of 3 and the survivor count (dose: 400.0 mg/kg/injection, schedule: Q04DX002 (ip), vehicle: saline with Tween-80) was 0 of 3.

In the case of `O=C(O)C(CSC(c1ccccc1)(c1ccccc1)c1ccccc1)NSc1ccccc1[N+](=O)[O-]` (stereo not given), the T/C [5] is reported as 125 % of control [5 of 6 alive].

For `CCN(CC)CCN(CCN(CC)CC)c1ccc2ccccc2c1`, the survivor count (dose: 150.0 mg/kg/injection, schedule: Q01DX001 (ip), vehicle: acetone) was 2 of 6 and the survivor count (dose: 300.0 mg/kg/injection, schedule: Q01DX001 (ip), vehicle: acetone) was 0 of 6.

For `O=C(O)COc1ccccc1O`, the survivor count (dose: 400.0 mg/kg/injection, schedule: Q01DX009 (ip), vehicle: saline with Tween-80) was 0 of 6.

With `CCN(CC)CCN=Cc1ccccc1OC` the survivor count [6] was 2 of 4.

For `O=[N+]([O-])c1ccc(C(O)C=C(C(F)(F)F)C(F)(F)F)cc1` (stereo not given), the survivor count [7] was 6 of 6, the survivor count [8] was 5 of 6 and the survivor count [9] was 1 of 6. The survivor count [5] was 1 of 6.

In the case of `CCOC(=O)C1c2cc3c(cc2C(c2cc(OC)c(OC)c(OC)c2)C2C(=O)OCC12)OCO3` (stereo not given), the T/C (dose: 6.0 mg/kg/injection, schedule: Q01DX009 (ip), vehicle: Klucel (hydroxypropylcellulose) (HPC)) is reported as 141 % of control, the survivor count (dose: 12.0 mg/kg/injection, schedule: Q01DX009 (ip), vehicle: Klucel (hydroxypropylcellulose) (HPC)) is reported as 6 of 6 and the survivor count (dose: 25.0 mg/kg/injection, schedule: Q01DX009 (ip), vehicle: Klucel (hydroxypropylcellulose) (HPC)) is reported as 1 of 6. For the same compound, the survivor count [7] was 0 of 6, the survivor count [8] was 5 of 6 and the survivor count [9] was 0 of 6. The survivor count [5] was 0 of 6.

In the case of `CCC(C)(CCC(C)C)c1ccncc1` (stereo not given), the survivor count [6] is reported as 0 of 6.

For `Cc1cccc2c(Nc3ccc(NS(C)(=O)=O)cc3)c3ccccc3nc12`, the T/C (dose: 1.25 mg/kg/injection, schedule: Q01DX009 (ip), vehicle: Klucel (hydroxypropylcellulose) (HPC)) was 127 % of control, the T/C (dose: 10.0 mg/kg/injection, schedule: Q01DX009 (ip), vehicle: Klucel (hydroxypropylcellulose) (HPC)) was 149 % of control and the survivor count (dose: 10.0 mg/kg/injection, schedule: Q01DX009 (ip), vehicle: saline) was 2 of 6. For the same compound, the T/C (dose: 20.0 mg/kg/injection, schedule: Q01DX009 (ip), vehicle: Klucel (hydroxypropylcellulose) (HPC)) was 140 % of control, the T/C (dose: 20.0 mg/kg/injection, schedule: Q01DX009 (ip), vehicle: saline) was 129 % of control and the T/C (dose: 20.0 mg/kg/injection, schedule: Q04DX003 (ip), vehicle: Klucel (hydroxypropylcellulose) (HPC)) was 141 % of control. The T/C (dose: 20.0 mg/kg/injection, schedule: Q04DX003 (ip), vehicle: saline with Tween-80) was 127 % of control, the survivor count (dose: 40.0 mg/kg/injection, schedule: Q01DX009 (ip), vehicle: saline) was 6 of 6 and the T/C (dose: 40.0 mg/kg/injection, schedule: Q04DX003 (ip), vehicle: Klucel (hydroxypropylcellulose) (HPC)) was 144 % of control. The T/C (dose: 80.0 mg/kg/injection, schedule: Q01DX001 (ip), vehicle: saline with Tween-80) was 130 % of control, the survivor count (dose: 80.0 mg/kg/injection, schedule: Q01DX009 (ip), vehicle: Klucel (hydroxypropylcellulose) (HPC)) was 6 of 6 and the T/C (dose: 80.0 mg/kg/injection, schedule: Q01DX009 (sc), vehicle: saline) was 134 % of control. For the same compound, the T/C (dose: 160.0 mg/kg/injection, schedule: Q01DX001 (ip), vehicle: saline with Tween-80) was 142 % of control, the T/C (dose: 320.0 mg/kg/injection, schedule: Q04DX003 (ip), vehicle: Klucel (hydroxypropylcellulose) (HPC)) was 135 % of control and the survivor count (dose: 800.0 mg/kg/injection, schedule: Q04DX003 (ip), vehicle: saline) was 6 of 6.

With `NC(=O)OCCCc1ccccc1` the survivor count [3] was 4 of 4 and the survivor count [4] was 2 of 4.

In the case of `CCOC(=O)NCC(CCN1CCCC1)(CCN1CCCC1)c1cccc2ccccc12`, the survivor count (dose: 100.0 mg/kg/injection, schedule: Q04DX002 (ip), vehicle: saline) is reported as 1 of 3.

For `O=C(N/N=C/c1ccc(N(CCCl)CCCl)cc1)c1ccc(C(=O)N/N=C/c2ccc(N(CCCl)CCCl)cc2)cc1`, the survivor count [9] was 6 of 6 and the survivor count [4] was 6 of 6.

`CNC(=O)Oc1ccccc1NC(=O)OC` was tested, and the survivor count (dose: 200.0 mg/kg/injection, schedule: Q04DX003 (ip), vehicle: saline with Tween-80) was 3 of 6 and the survivor count [1] was 0 of 6.

For `NNC(=O)C1CC2C=CCC(C2)C1` (stereo not given), the survivor count (dose: 400.0 mg/kg/injection, schedule: Q01DX001 (ip), vehicle: saline with Tween-80) was 3 of 6.

With `CNCCN1CCCC1` the survivor count (dose: 400.0 mg/kg/injection, schedule: Q04DX003 (ip), vehicle: saline) was 2 of 6.

In the case of `O=[N+]([O-])c1ccc(F)cc1F`, the survivor count (dose: 175.0 mg/kg/injection, schedule: Q01DX009 (ip), vehicle: Klucel (hydroxypropylcellulose) (HPC)) is reported as 0 of 6 and the survivor count (dose: 350.0 mg/kg/injection, schedule: Q01DX009 (ip), vehicle: Klucel (hydroxypropylcellulose) (HPC)) is reported as 0 of 6.
